doi:10.1101/2020.09.26.313585
No constants are given. Whether binding was seen depends on the method and setting. Binding seen in cells or lysates may run through a third protein. Some binding calls cover weakened binding; strength is not graded here. Sequences can lack the tags named with a protein.

T1: RFP-SPPL3 (signal peptide peptidase like 3, wild type) (UniProt Q8TCT6)
T1 sequence: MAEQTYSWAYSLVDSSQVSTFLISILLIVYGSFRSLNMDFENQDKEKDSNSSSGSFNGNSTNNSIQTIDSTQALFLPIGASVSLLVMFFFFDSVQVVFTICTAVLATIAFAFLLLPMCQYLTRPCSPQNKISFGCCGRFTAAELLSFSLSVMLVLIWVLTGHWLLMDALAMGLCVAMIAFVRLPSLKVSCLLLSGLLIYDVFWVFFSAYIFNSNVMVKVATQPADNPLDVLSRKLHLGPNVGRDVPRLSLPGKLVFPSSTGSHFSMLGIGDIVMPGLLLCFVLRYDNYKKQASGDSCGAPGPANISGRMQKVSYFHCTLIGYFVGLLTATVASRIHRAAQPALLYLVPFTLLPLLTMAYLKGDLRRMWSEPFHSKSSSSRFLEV

T2: RFP-SPPL3 D271A (catalytically inactive SPPL3 mutant) (UniProt Q8TCT6)
T2 sequence: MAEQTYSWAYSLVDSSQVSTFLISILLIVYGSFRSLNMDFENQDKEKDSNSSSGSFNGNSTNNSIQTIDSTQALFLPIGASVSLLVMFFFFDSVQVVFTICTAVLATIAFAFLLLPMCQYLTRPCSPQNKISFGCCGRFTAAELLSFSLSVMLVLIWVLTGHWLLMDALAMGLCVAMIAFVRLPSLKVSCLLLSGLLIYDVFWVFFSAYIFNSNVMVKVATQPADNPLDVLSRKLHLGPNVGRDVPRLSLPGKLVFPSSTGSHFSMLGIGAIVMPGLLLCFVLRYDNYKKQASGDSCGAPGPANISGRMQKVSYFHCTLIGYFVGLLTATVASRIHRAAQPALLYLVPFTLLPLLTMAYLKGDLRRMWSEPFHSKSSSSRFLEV


Legend:
[1] = biological target: T1, RFP-SPPL3 (signal peptide peptidase like 3, wild type); assay: co-IP
[2] = biological target: T2, RFP-SPPL3 D271A (catalytically inactive SPPL3 mutant); assay: co-IP

binding [1]	binding [2]	Binder
no binding	binds	FLAG-B3GNT5 (enzyme, UniProt Q9BYG0 1-378) MRMLVSGRRVKKWQLIIQLFATCFLASLMFFWEPIDNHIVSHMKSYSYRYLINSYDFVNDTLSLKHTSAGPRYQYLINHKEKCQAQDVLLLLFVKTAPENYDRRSGIRRTWGNENYVRSQLNANIKTLFALGTPNPLEGEELQRKLAWEDQRYNDIIQQDFVDSFYNLTLKLLMQFSWANTYCPHAKFLMTADDDIFIHMPNLIEYLQSLEQIGVQDFWIGRVHRGAPPIRDKSSKYYVSYEMYQWPAYPDYTAGAAYVISGDVAAKVYEASQTLNSSLYIDDVFMGLCANKIGIVPQDHVFFSGEGKTPYHPCIYEKMMTSHGHLEDLQDLWKNATDPKVKTISKGFFGQIYCRLMKIILLCKISYVDTYPCRAAFI
no binding	no binding	FLAG-ST3GAL5 (enzyme, UniProt Q9UNP4 1-418) MRTKAAGCAERRPLQPRTEAAAAPAGRAMPSEYTYVKLRSDCSRPSLQWYTRAQSKMRRPSLLLKDILKCTLLVFGVWILYILKLNYTTEECDMKKMHYVDPDHVKRAQKYAQQVLQKECRPKFAKTSMALLFEHRYSVDLLPFVQKAPKDSEAESKYDPPFGFRKFSSKVQTLLELLPEHDLPEHLKAKTCRRCVVIGSGGILHGLELGHTLNQFDVVIRLNSAPVEGYSEHVGNKTTIRMTYPEGAPLSDLEYYSNDLFVAVLFKSVDFNWLQAMVKKETLPFWVRLFFWKQVAEKIPLQPKHFRILNPVIIKETAFDILQYSEPQSRFWGRDKNVPTIGVIAVVLATHLCDEVSLAGFGYDLNQPRTPLHYFDSQCMAAMNFQTMHNVTTETKFLLKLVKEGVVKDLSGGIDREF
no binding	no binding	FLAG-B4GALNT1 (enzyme, UniProt Q00973 1-533) MWLGRRALCALVLLLACASLGLLYASTRDAPGLRLPLAPWAPPQSPRRPELPDLAPEPRYAHIPVRIKEQVVGLLAWNNCSCESSGGGLPLPFQKQVRAIDLTKAFDPAELRAASATREQEFQAFLSRSQSPADQLLIAPANSPLQYPLQGVEVQPLRSILVPGLSLQAASGQEVYQVNLTASLGTWDVAGEVTGVTLTGEGQADLTLVSPGLDQLNRQLQLVTYSSRSYQTNTADTVRFSTEGHEAAFTIRIRHPPNPRLYPPGSLPQGAQYNISALVTIATKTFLRYDRLRALITSIRRFYPTVTVVIADDSDKPERVSGPYVEHYLMPFGKGWFAGRNLAVSQVTTKYVLWVDDDFVFTARTRLERLVDVLERTPLDLVGGAVREISGFATTYRQLLSVEPGAPGLGNCLRQRRGFHHELVGFPGCVVTDGVVNFFLARTDKVREVGFDPRLSRVAHLEFFLDGLGSLRVGSCSDVVVDHASKLKLPWTSRDAGAETYARYRYPGSLDESQMAKHRLLFFKHRLQCMTSQ
